Results published in article PMC10163288.
The list shows a part of the results.

B1: il2ra_site2_3nfp_sap_22_mot_HHH_b1_01379_af2_000000227_0001_41_54_H_._HHH_b1_07836_0001_0000700021_0000001_0_0001_af2pred_0001_af2pred (protein)
chain: SSSSDEEERQVEELIREAEELLRKGNPEEAERVLEEAILIAAELGNFELFAILHALLERVDSSSS
B2: il2ra_site1_2b5i_normal_mot_HHH_b1_00824_af2_000000079_0001_41_56_H_._HHH_b1_00886_0001_0000500020_0000001_0_af2pred_dldesign_0_af2pred (protein)
chain: SSSSLRELLERAEELYHRYMETKDPRLLKELEKLLEEIKKSGDKFAIKVSEQALELAREESSSSS
B3: il2ra_site2_3nfp_sap_15_mot_HHH_b1_05628_af2_000000064_0001_19_35_H_._71fa3b3ce36e4cc21c7110f2bf27d1ce_0001_af2_0002_0000400023_0000001_0_0001 (protein)
chain: SSSSDEEERERKIREELEEAERRGDEELFRRLLARLVQLAFEYNNHQLFFELAELLYKNNSSSSS
B4: il2ra_site2_3nfp_sap_25_mot_HHH_b1_04756_000000059_0001_41_55_H_._698813b5b2907ad46adb08327c7f7b71_0001_0001_0000500041_0000001_0_0001 (protein)
chain: SSSSSDWREYIEAALELLKRATNEEEFERIFELVRLAIESRNDPELQEELEEIEEEFKKGSSSSS
B5: il2ra_site1_2b5i_normal_mot_HHH_b1_08745_af2_000000166_0001_39_57_H_._HHH_b1_02223_0001_0000200006_0000001_0_af2pred_0001_af2pred_1 (protein)
chain: SSSSSSRNEEVFELFEEADRLDKNGDEEEAEKVLEEARELAEELGNRSALRLVEAMLKLSSSSSS
B6: il2ra_site1_1z92_normal_mot_HHH_b2_07758_000000290_0001_1_17_H_._HHH_b2_04931_0001_0000200015_0000001_1_af2pred_0001_af2pred_1 (protein)
chain: SSSSDELEKNARYIVRAMVETAGLSEEQEEELRELARELVERGLSWREIFEILDRLAAKLSSSSS
B7: il2ra_site1_3nfp_sap_14_mot_HHH_b1_05523_000000054_0001_1_19_H_._HHH_b2_06744_af2_0001_0000200032_0000001_0_0001_af2pred_0001_af2pred_swapped (protein)
chain: DKVAKLLIRLAIEEDSKRNLKKILEQAERKAGDPEEAERLLQELIEELLGDPEEAEKIVEEIKRR
B8: il2ra_site2_3nfp_normal_mot_HHH_b1_05918_af2_000000127_0001_23_40_H_._HHH_b2_05419_0001_0000400019_0000001_0 (protein)
chain: SSSSEAEEYLEAALLLAELALEEGDPEQARKSLELAFQLAEDAGDEEVLEEVEELLREVTSSSSS
B9: il2ra_site2_2erj_sap_25_mot_HHH_b1_02968_000000142_0001_22_39_H_._09869709d06cb525cd55f400c7a8f8a0_0001_af2_0001_0000300018_0000001_0_0001_af2pred_0001_1_af2pre … (protein)
chain: SSSSSDREEVEEEVRELLEEAERIPDIRRALELLQEAAQLADEIGDPELFELVDEVLQRLSSSSS
B10: il2ra_site2_3nfp_normal_mot_HHH_b1_03957_af2_000000091_0001_1_21_H_._HEEHE_2417_0001_0000300011_0000001_0 (protein)
chain: DSEEVVKAAVESLARFAGVPSVSVSVENGEITVEIEGDDRAAESLELALEIFARRRGIPIHVEVE
B11: il2ra_site1_1z92_normal_mot_31dab337c75776deac3d6f68dc8cd1f9_0001_000000144_0001_35_49_H_._461c5b8021308318a9a61a4e77c13547_0001_0001_0000300020_0000001_0 (protein)
chain: SEEEEEVIEIAAELAGVPPEHIRSILRAVKFAAGGDPRHIERDVEIFLRIAGDPAVEALLEALRR
B12: il2ra_site2_2erj_sap_21_mot_b21041926606bcd66a54c4cea8303fc2_0001_1_af2_000000031_0001_15_29_H_._HHH_b2_06202_af2_0001_0000500031_0000001_0_0001_af2pred_0001_1_ … (protein)
chain: SSSSSDEEEVRRLVEELLEEAKKIKDLREALEVLQEASRLAAEADDEELIELIRKVLQELSSSSS
B13: il2ra_site1_2b5i_normal_mot_0bad3e1dd0b580ac51794e340135530b_0001_af2_000000007_0001_1_12_H_._HHH_b2_00048_0001_0000200010_0000001_0_af2pred_dldesign_0_af2pred (protein)
chain: SSSSSSSPLEEEVRRLLEEAKTLKDFEELNKKLYEALFHARKARDPALVAEVEEVYKELSSSSSS
B14: il2ra_site1_3nfp_sap_12_mot_806eb045a8cbe0685dcd243f9811a1cd_0001_af2_000000070_0001_52_62_H_._45d91642349a1af72601d12b97c7d28f_0001_0001_0000300027_0000001_0_0 … (protein)
chain: DLEEELERLLREQGLPPKMVRLLLDMLRLLAEKLGDPEEAAERLIERLRRAGTPQAARLLEELLK
B15: il2ra_site2_3nfp_sap_23_mot_HHH_b1_02369_000000291_0001_21_37_H_._HHH_b2_05547_af2_0001_0000300005_0000001_0_0001 (protein)
chain: SSSSSEEVEEAERLAEEVLKILEERGDERAFKYVRAVLELLRRTQDPRLAELLREYAETVSSSSS
B16: il2ra_site2_3nfp_normal_mot_HHH_b1_00660_af2_000000090_0001_40_57_H_._HHH_b1_03264_af2_0001_0000800038_0000001_0_af2pred_0001_af2pred_1_swapped (protein)
chain: SSSSDEEEEVKRLLEEAEELLKKGNPEEARKLARRASALAAEEDNHELFILALELLERLESSSSS
B17: il2ra_site1_2b5i_sap_10_mot_HHH_b1_06521_af2_000000219_0001_1_19_H_._4c4ac6cabe4c261757e68d3976ab26f5_0001_af2_0001_0000700057_0000001_0_0001_af2pred_dldesign_0 … (protein)
chain: SSSSDESYDEIYDLFNEALKLRKEGKYEEAKKLLEEALELAKKNKDEKIIAEIEYLLSKLSSSSS
B18: il2ra_site1_2b5i_normal_mot_2cbe48e66a1f39b3fed734b245ab0a04_0001_000000015_0001_17_31_H_._HHH_b2_01252_0001_0000300008_0000001_0_af2pred_dldesign_0_af2pred (protein)
chain: SSSSSDPAEVRARVEELIAKAKELEDEEERDKVLTEALLLARKGRDPELIARVEAVAKELSSSSS

biological target: il2ra, P01589; assay: yeast display titration

Apparent Kd, inactive:
B1 no binding seen
B2 no binding seen
B3 no binding seen
B4 no binding seen
B5 no binding seen
B6 no binding seen
B7 no binding seen
B8 no binding seen
B9 no binding seen
B10 no binding seen
B11 no binding seen
B12 no binding seen
B13 no binding seen
B14 no binding seen
B15 no binding seen
B16 no binding seen
B17 no binding seen
B18 no binding seen

2 records drawn at random from those above:
Apparent Kd, inactive:
B15 no binding seen
B10 no binding seen
